Measurements: publication PMC10163288
This is one part of the list.

B1: il2ra_site2_3nfp_normal_mot_HHH_b1_04031_af2_000000136_0001_1_21_H_._HHH_b1_01430_0001_0000400014_0000001_0 (protein)
chain: SSSSDKEKLERLIELALESLESAGDPEAVRRVEELLEEFREEGDPRYVLEVYEIAREVYEKSSSS
B2: il2ra_site1_2b5i_normal_mot_HHH_b1_02271_000000068_0001_1_16_H_._HHH_b2_07217_0001_0000600035_0000001_0_af2pred_dldesign_0_af2pred (protein)
chain: SSSSEAERLAAEALREAEALKAQGKRREALKVLDEAKKKVDELDDEAAAARLEDYALELFKSSSS
B3: il2ra_site1_1z92_sap_10_mot_ems_4hC_799_0001_000000043_0001_18_33_H_._5202e8ad13ee9de4b1286d7ece000ddb_0001_af2_0001_0000400030_0000001_0_0001 (protein)
chain: SSSSSELEEFAREVVEELVKEFNLSERQQRSLEQLARMAVEMGADEEDIEKALRRFAEFLGSSSS
B4: il2ra_site2_3nfp_normal_mot_HHH_b1_05627_af2_000000038_0001_43_56_H_._HHH_b1_01339_0001_0000600015_0000001_0 (protein)
chain: SSSSDKAEEYVRVALELAEEAIEAGDEESARRQLEAALLLARDLGDPELEERVQELLEELRSSSS
B5: il2ra_site2_2erj_normal_mot_ems_p1-14H-GABBL-16H-GABBL-15H_0014_0001_0001_0001_000000124_0001_40_55_H_._HEEHE_0157_0001_0000100001_0000001_1 (protein)
chain: SDERMFARFLRLNAEHAGVPHVEVEVSNGEVTVTVNGTDEIAELFAHQVEESAKQQGIKVEVEIE
B6: il2ra_site2_3nfp_sap_15_mot_HHH_b1_03316_000000041_0001_39_56_H_._HHH_b1_04942_0001_0000100001_0000001_0_0001_af2pred_0001_af2pred_1_swapped (protein)
chain: SSSSNKEELRILAENAVKAAKELNNDEDARALLLVLLERAEELGNEEVQEFIEELQEEINSSSSS
B7: il2ra_site1_2b5i_sap_17_mot_143f78fc0439b137266e145e81963a82_0001_1_af2_000000250_0001_37_51_H_._2548690152cc24afdf538b66510d0e06_0001_0001_0000200012_0000001_0 … (protein)
chain: SSSSDEKYDEVERLFKKALELRRAGKKEEAKEVLEEALKIAEEAKDEKLVEELKRFLELLSSSSS
B8: il2ra_site2_2erj_sap_18_mot_66c2fca85847babee3b8944584cfd08f_0001_1_000000223_0001_16_30_H_._HEEHE_2538_0001_0000200008_0000001_0_0001 (protein)
chain: YEFLHILMQVLAAIPDPEESHELLEELHELAAEGDKKEAIELALRVAEELGNPELAKELEKLLEP
B9: il2ra_site1_2b5i_normal_mot_HHH_b2_01594_000000003_0001_41_55_H_._HHH_b1_06536_0001_0000100004_0000001_0_af2pred_dldesign_0_af2pred (protein)
chain: SSSSPEFKELYEKTLELLEEGRLEEARKLLDELDDLAKEADDPEALKKVNELIKRLYRVEKSSSS
B10: il2ra_site1_1z92_sap_19_mot_01209686ea234b34325f918445e6eade_0001_af2_000000144_0001_18_33_H_._8eb524b276bbb897fd8f0cca34c37a2d_0001_0001_0000100003_0000001_0_0 … (protein)
chain: SSSSDELFERLDELWEEAQEAKKRGNPEEAKELLEEAIKIAEELGDEHLLRQLEQALRLVRSSSS
B11: il2ra_site1_1z92_normal_mot_54e474eed2d0515e81978198f0f96ec2_0001_000000202_0001_15_30_H_._15f70e71ac3214bf43105af5abf4654e_0001_1_af2_0001_0000200012_0000001_0 … (protein)
chain: DEEAARKDLQRALELGIPPRSVVLAVLRALERDLGDPEEALEVIERAIELLNDPELREVVEKLKP
B12: il2ra_site2_2erj_sap_22_mot_6c2800a769814540b5b47941e710ff28_0001_000000197_0001_35_49_H_._HHH_b1_06288_0001_0000500025_0000001_0_0001 (protein)
chain: SSSSDEEAHKVNELLRQVMRLFREGNPEEAREVLEEARELAEENNDEELREAVELFKEYLSSSSS
B13: il2ra_site2_3nfp_normal_mot_HHH_b1_05627_af2_000000038_0001_43_56_H_._HHH_b2_04370_af2_0001_0000300006_0000001_0 (protein)
chain: SSSSDKAEEYLRIARELIKEAVEAGDEEAARKQLEAAIAAAEALGDEEALEELQEILEKLSSSSS
B14: il2ra_site1_2b5i_sap_13_mot_HHH_b2_00256_000000050_0001_19_35_H_._HHH_b2_06740_0001_0000200023_0000001_0_0001_af2pred_dldesign_0_af2pred (protein)
chain: SKLAEELRYLIERNPKHFVRLVKREALNAGMPEEEVEKLAKELERLLAEGKYDEAIELAVEVISK
B15: il2ra_site2_2erj_normal_mot_HHH_b2_01353_af2_000000049_0001_23_39_H_._ems_3hC_1310_0001_0001_0000300011_0000001_0 (protein)
chain: DEVEELLRLLREASILAFERRDFEAFHLLAEAAKLLAEAQAKRDEELKEEANKYAQRVIEEAESS
B16: il2ra_site1_2b5i_normal_mot_HHH_b1_02271_000000068_0001_1_16_H_._HHH_b2_07355_af2_0001_0000400020_0000001_0 (protein)
chain: SSSSSTRLELMRELDELIKELAEEGDEETDEEVYELAIEASKKRDPELLKEAIELAKRVLSSSSS
B17: il2ra_site2_2erj_sap_18_mot_b5c6f2848cbf55e1ecbd417c35b42da7_0001_af2_000000155_0001_1_14_H_._2bb8f7c4b7b4379f71127615d49396b2_0001_0001_0000200008_0000001_0_00 … (protein)
chain: SSSSSHEEEVRELLEEAKEAFKRGDLHLVYELLVRALHVAAKHQDQELQEEIAEFFERLQSSSSS
B18: il2ra_site1_2b5i_normal_mot_f5ff40796168375b462bec8614a1db4a_0001_1_000000138_0001_53_65_H_._HHH_b1_03868_0001_0000300029_0000001_0_af2pred_dldesign_0_af2pred (protein)
chain: SSSSSSEDYRELVEELIEEAKKEKDPLLRKKLLTLARRVAKKAKDEELIKKVEEVEEEIKSSSSS
B19: il2ra_site2_3nfp_normal_mot_HHH_b2_05281_000000198_0001_39_56_H_._HHH_b1_05218_0001_0000200017_0000001_0 (protein)
chain: SSSSDEERVEELLREVEELLKRGNPEEAQKALQEATHIAYENRNSELFFKIAEYAFALVQSSSSS

biological target: il2ra, P01589; experiment: yeast display titration

Apparent Kd, inactive:
B1 no binding seen
B2 no binding seen
B3 no binding seen
B4 no binding seen
B5 no binding seen
B6 no binding seen
B7 no binding seen
B8 no binding seen
B9 no binding seen
B10 no binding seen
B11 no binding seen
B12 no binding seen
B13 no binding seen
B14 no binding seen
B15 no binding seen
B16 no binding seen
B17 no binding seen
B18 no binding seen
B19 no binding seen
